Reference: ChEMBL document CHEMBL3393048, “Discovery of potent cytotoxic ortho-aryl chalcones as new scaffold targeting tubulin and mitosis with affinity-based fluorescence” (J Med Chem, 2014)

How the values were obtained:
[1] = Antiproliferative activity against human CNE2 cells after 48 hrs by SRB method; type: functional, cell-based; details: CNE-2, 48 h
Outline: (§1)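 SRB assay. Cells in DMEM high glucose with 10% FBS were seeded at 5000/well and grown 24 h; a day-0 plate was fixed at that point. Compounds were added in triplicate for 48 h. IC50 came from nonlinear regression of dose–response curves from at least two independent experiments.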

SW480 = assay: Antiproliferative activity against human SW480 cells after 48 hrs by SRB method; type: functional, cell-based; details: SW480, 48 h
Outline: as §1, with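 “h. Cells were fixed with TCA at 4 °C for 1 h, stained with 0.4% SRB, and the dye was solubilized in 10 mM Tris pH 10.4. OD was read at 515 nm with day-0 OD subtracted.” for “h.”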

COc1cc2c(c(OC)c1OC)-c1ccc(OC)c(=O)cc1[C@@H](NC(C)=O)CC2 [COLCHICINE]
IC50 [1]: 34 nM | IC50 (SW480): 33 nM
